Results on 22 targets are retold here after the supplement of paper PMC10849652.

Protein sequences, listed by entry. Tags and fused reporters are not part of them. Lines headed by an entry give the natural chain unless they say otherwise; changes in a name come on top.
UniProt Q9UDW1: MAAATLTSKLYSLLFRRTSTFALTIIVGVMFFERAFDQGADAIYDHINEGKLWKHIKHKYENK
UniProt Q9H1J1: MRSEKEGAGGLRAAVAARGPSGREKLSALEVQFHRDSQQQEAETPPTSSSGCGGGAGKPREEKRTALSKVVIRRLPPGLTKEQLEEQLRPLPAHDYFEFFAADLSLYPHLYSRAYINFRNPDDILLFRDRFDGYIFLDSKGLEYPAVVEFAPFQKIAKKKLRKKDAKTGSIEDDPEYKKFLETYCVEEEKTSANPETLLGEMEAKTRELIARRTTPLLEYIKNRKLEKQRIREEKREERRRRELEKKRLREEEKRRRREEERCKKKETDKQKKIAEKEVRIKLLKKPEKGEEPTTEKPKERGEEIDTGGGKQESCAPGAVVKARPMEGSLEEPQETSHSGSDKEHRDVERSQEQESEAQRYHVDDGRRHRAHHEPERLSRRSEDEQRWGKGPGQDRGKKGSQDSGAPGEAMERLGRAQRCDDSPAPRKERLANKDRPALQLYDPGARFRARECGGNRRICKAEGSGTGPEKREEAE
UniProt O94763, whole entry, looked up: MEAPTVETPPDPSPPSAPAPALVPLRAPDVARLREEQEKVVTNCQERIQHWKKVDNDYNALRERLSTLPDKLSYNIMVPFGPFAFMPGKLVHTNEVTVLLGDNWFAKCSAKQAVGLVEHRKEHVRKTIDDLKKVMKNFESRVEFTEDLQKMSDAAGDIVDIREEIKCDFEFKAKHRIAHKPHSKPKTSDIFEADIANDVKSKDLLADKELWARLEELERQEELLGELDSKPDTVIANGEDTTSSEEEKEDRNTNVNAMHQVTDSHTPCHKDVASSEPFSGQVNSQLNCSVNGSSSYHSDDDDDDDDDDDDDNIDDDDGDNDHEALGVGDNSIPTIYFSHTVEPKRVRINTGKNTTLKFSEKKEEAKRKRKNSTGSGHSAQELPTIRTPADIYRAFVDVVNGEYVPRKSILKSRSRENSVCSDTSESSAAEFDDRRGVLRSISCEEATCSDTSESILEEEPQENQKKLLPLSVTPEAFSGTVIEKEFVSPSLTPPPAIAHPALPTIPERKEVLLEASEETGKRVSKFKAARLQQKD
UniProt Q86T82: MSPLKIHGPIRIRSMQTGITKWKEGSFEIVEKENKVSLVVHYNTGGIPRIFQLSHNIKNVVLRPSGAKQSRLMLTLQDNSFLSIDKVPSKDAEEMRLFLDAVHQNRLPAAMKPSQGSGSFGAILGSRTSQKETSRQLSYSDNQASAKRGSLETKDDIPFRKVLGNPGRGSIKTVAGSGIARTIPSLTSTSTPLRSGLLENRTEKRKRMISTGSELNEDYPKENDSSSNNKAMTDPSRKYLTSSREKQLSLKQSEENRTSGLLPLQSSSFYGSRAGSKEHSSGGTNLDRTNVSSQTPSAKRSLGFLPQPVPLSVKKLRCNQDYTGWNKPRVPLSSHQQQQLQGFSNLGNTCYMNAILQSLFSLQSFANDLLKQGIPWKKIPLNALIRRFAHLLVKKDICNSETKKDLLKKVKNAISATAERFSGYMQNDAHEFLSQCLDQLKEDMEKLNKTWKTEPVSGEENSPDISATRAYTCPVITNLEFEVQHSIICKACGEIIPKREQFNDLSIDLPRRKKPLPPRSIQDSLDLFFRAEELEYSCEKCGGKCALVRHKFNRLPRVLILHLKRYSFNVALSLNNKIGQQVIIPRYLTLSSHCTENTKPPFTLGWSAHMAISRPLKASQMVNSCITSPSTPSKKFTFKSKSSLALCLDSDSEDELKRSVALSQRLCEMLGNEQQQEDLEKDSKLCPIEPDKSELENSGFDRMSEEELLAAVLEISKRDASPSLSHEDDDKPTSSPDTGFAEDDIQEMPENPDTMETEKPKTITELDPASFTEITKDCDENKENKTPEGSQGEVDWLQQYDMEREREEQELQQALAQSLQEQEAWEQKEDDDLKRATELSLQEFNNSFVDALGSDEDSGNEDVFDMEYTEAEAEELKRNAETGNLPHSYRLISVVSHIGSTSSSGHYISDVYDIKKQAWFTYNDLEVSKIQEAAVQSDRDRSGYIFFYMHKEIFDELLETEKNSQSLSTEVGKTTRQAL
UniProt Q68DE3: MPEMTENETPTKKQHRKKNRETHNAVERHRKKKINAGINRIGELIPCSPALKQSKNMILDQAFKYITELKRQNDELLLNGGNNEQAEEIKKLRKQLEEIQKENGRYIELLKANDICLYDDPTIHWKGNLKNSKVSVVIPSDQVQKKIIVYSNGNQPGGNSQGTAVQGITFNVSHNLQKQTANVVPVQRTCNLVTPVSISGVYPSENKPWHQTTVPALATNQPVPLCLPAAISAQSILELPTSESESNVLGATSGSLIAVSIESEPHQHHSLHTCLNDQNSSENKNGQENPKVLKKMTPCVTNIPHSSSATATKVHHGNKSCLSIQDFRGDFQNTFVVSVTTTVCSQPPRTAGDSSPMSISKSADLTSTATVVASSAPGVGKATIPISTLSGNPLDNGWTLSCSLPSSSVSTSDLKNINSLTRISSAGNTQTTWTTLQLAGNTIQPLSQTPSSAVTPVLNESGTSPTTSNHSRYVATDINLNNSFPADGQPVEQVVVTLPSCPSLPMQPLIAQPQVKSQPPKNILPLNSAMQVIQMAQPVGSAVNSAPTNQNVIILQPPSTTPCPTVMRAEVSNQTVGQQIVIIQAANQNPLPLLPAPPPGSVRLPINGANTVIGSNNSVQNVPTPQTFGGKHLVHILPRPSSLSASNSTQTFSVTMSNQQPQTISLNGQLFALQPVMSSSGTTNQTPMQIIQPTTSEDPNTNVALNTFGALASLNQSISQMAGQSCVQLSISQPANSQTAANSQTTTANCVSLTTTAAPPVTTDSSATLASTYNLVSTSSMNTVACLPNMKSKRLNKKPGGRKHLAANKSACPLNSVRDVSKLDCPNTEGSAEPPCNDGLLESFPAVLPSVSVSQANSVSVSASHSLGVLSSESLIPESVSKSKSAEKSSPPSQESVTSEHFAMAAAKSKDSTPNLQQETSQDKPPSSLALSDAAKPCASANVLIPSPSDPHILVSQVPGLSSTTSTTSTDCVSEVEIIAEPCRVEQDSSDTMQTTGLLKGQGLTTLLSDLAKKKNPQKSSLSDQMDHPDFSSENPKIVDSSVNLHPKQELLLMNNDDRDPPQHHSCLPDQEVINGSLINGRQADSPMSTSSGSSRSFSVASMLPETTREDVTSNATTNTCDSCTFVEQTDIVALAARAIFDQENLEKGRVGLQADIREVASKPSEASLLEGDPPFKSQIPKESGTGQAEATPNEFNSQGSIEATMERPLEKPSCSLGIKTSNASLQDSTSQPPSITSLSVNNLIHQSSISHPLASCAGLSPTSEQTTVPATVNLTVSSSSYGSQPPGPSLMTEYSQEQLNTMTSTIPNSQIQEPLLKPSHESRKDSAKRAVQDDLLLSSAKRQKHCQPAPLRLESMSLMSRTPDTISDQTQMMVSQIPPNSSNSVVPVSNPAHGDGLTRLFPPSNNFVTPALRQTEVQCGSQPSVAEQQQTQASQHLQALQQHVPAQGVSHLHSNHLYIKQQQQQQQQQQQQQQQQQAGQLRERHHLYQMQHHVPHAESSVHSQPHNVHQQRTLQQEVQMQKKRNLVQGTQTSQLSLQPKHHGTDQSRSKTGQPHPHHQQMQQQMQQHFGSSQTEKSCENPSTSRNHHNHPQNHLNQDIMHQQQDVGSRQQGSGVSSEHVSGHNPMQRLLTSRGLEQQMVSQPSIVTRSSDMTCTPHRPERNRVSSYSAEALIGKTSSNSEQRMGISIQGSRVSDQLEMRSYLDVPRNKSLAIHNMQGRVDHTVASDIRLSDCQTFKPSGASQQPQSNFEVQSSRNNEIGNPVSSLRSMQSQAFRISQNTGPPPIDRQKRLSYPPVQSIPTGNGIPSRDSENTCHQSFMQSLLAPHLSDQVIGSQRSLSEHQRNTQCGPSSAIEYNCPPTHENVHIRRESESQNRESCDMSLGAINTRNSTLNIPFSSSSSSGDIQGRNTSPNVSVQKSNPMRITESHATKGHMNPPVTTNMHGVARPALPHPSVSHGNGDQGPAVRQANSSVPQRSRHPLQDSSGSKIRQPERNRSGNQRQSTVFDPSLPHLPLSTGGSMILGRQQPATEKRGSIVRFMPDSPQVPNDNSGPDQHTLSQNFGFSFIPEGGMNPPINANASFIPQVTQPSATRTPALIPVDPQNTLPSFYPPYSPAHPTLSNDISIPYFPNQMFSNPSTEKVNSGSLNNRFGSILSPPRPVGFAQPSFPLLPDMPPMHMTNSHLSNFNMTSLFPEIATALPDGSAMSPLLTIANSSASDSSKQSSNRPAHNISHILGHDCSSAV
UniProt O75385: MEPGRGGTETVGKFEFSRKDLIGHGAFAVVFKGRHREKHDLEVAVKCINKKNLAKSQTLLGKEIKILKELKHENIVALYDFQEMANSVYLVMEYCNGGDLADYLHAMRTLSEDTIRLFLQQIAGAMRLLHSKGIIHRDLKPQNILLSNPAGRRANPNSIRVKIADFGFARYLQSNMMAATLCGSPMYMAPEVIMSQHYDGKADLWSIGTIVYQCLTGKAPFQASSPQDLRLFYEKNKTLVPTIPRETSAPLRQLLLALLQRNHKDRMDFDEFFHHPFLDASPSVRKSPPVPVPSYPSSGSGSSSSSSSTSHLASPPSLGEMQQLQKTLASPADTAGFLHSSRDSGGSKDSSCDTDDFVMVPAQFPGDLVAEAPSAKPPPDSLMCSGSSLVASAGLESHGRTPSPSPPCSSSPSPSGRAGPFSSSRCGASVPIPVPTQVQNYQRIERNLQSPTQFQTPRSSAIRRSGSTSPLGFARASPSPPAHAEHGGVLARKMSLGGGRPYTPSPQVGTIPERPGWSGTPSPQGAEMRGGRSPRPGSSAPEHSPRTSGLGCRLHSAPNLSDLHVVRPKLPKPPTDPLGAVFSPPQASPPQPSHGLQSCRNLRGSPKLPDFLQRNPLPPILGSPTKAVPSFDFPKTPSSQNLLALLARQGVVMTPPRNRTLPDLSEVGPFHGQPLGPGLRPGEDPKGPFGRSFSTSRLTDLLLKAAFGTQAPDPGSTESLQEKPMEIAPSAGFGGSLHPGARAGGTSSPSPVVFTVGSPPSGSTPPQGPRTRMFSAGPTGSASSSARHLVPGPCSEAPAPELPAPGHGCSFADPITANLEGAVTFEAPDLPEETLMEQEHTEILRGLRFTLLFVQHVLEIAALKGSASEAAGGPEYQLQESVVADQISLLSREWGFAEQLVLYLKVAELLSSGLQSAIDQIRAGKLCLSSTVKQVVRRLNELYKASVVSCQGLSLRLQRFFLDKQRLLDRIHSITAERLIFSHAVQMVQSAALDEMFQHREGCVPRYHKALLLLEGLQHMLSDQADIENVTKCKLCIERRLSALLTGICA
UniProt Q9Y3A2: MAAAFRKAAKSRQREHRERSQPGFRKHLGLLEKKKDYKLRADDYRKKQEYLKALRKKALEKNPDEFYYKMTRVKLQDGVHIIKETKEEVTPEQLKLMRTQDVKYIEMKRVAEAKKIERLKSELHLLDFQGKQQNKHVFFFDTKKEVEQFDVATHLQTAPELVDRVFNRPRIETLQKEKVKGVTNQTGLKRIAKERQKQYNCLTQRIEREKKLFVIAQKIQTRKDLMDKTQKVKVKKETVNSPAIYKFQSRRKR

Some of the results follow.

Compound in the first assay: C1CCN(C1)C(=O)NC2=CC=CC(=C2)NC3=NC=C(C(=N3)NCCC4=CN=CN4)Br
In words: log2 fold change, soluble protein after heating vs DMSO (PISA); higher = thermal stabilisation; K562 lysate, 10 uM; active = over 0.2 and 3.5 SD of the protein, either way, in both replicates (recomputed). An outline of the steps: (§1)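 Following dounce homogenisation of K562 pellets in PBS pH 7.4 with 1 mM MgCl2, crude extract at 1 mg/mL protein was incubated for 30 min with 10 μM compound. Aliquots were then heated for 3 min over 48°C-58°C and pooled, NP-40 was added to 0.5% at 4°C, and soluble protein was recovered as the supernatant at 21,000xg for 90 min. Channel-sum-equalised TMTpro 16plex LC-MS/MS quantified this protein. Each value, from duplicates, is a log-two fold change in thermal stability relative to solvent controls.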
Regarding USB1 (UniProt Q9BQ65), the log2 fold change was inactive: 0.019.
As for URB2 (UniProt Q14146), the log2 fold change was inactive: 0.038.
Same read-out and setting: the figure for USP6NL isoform 2 (UniProt Q92738) is inactive: 0.149.
For the target USP12 (UniProt O75317), the log2 fold change is inactive: 0.073.
On the same count and under the same terms, under USP36 (UniProt Q9P275) stands inactive: 0.167; under UQCR10 (UniProt Q9UDW1), inactive: 0.014; under UTRN isoform 2 (UniProt P46939), inactive: 0.135.
The same measure, in the same setting: under UNG (UniProt P13051) stands inactive: 0.105; under UPF3A (UniProt Q9H1J1), inactive: -0.047.
The same measure, in the same setting: under UNKL (UniProt E9PDK2) stands inactive: 0.155; under USP38 (UniProt Q8NB14), inactive: 0.007.
On to URI1 isoform 4 (UniProt O94763), for which the log2 fold change is inactive: -0.181.
The same measure, in the same setting: under VCX3B (UniProt Q9H321) stands inactive: -0.013; under USP37 (UniProt Q86T82), inactive: -0.008; under USF3 (UniProt Q68DE3), inactive: -0.043.
Same read-out and setting: the figure for ULK1 (UniProt O75385) is inactive: -0.028; for USP42 (UniProt Q9H9J4) it is inactive: -0.017; for VASN (UniProt Q6EMK4) it is inactive: -0.277.
Same read-out and setting: the figure for UTP11 (UniProt Q9Y3A2) is inactive: -0.192; for VGF (UniProt O15240) it is inactive: 0.068.
Regarding UROD (UniProt H0Y5R6), the log2 fold change is inactive: -0.125.
Turning to USP20 (UniProt Q9Y2K6), the log2 fold change was inactive: 0.058.

Compound in a further assay: C1CN(CCC1(CC2=CC=C(C=C2)Cl)N)C3=NC=NC4=C3C=CN4
Described as above. Put shortly: as §1
With USB1 (UniProt Q9BQ65), the log2 fold change is inactive: 0.001.
The same measure, in the same setting: under URB2 (UniProt Q14146) stands inactive: -0.022; under USP6NL isoform 2 (UniProt Q92738), inactive: -0.124.
On the same count and under the same terms, the figure for USP12 (UniProt O75317) is inactive: 0.027.
On to USP36 (UniProt Q9P275), for which the log2 fold change is inactive: -0.197.
Turning to UQCR10 (UniProt Q9UDW1), the log2 fold change is inactive: 0.026.
With UTRN isoform 2 (UniProt P46939), the log2 fold change was inactive: 0.171.
The same measure, in the same setting: under UNG (UniProt P13051) stands inactive: 0.04; under UPF3A (UniProt Q9H1J1), inactive: 0.044.
Same read-out and setting: under UNKL (UniProt E9PDK2) stands inactive: 0.156.
On to USP38 (UniProt Q8NB14), for which the log2 fold change is inactive: -0.068.
Still for that read-out and setting: under URI1 isoform 4 (UniProt O94763) stands inactive: -0.055.
Still for that read-out and setting: the figure for VCX3B (UniProt Q9H321) is inactive: -0.058.
Turning to USP37 (UniProt Q86T82), the log2 fold change is inactive: -0.199.
Still for that read-out and setting: under USF3 (UniProt Q68DE3) stands inactive: -0.222; under ULK1 (UniProt O75385), inactive: -0.109; under USP42 (UniProt Q9H9J4), inactive: -0.141.
As to VASN (UniProt Q6EMK4), the log2 fold change was inactive: -0.01.
On the same count and under the same terms, the figure for UTP11 (UniProt Q9Y3A2) is inactive: -0.118; for VGF (UniProt O15240) it is inactive: -0.044.
UROD (UniProt H0Y5R6): the log2 fold change is inactive: 0.11.
For USP20 (UniProt Q9Y2K6), the log2 fold change was inactive: 0.045.
